Among the data in PubChem BioAssay AID2685 (National Center for Advancing Translational Sciences (NCATS), 2010) are cell number change and AC50 values, retold here.

The experiment is described as follows: qHTS Assay for Lipid Storage Modulators in Drosophila S3 Cells.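 For cell number change: cells counted by Cell Tracker Red CMTPX staining in the red channel.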 The settings on record: BODIPY lipid droplet fluorescence, 18-24 h; for cell number change: measured here: cell count max response, cells fed with added oleic acid. In outline: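 Drosophila S3 cells loaded with oleic acid (400 uM, as added) and compounds at several concentrations; lipid droplets imaged by 488-nm laser-scanning cytometry, 500–530 nm intensity and object ratio to cell channel. Percent activity normalized to 20 uM Triacsin C.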
On the technique in general: Quantitative high-throughput screening tests each substance at several concentrations.

Setting [1] is: measured here: cell number channel AC50, cells fed with added oleic acid.
[2] abbreviates: measured here: lipid fluorescence (Fed channel) AC50, cells fed with added oleic acid.

The structures appear in SMILES notation. Some of the results follow. The main result of the screen is listed elsewhere. These columns were measured beside it and carry no call. The list favours compounds with an active or inconclusive main result. The note in brackets gives the kind of curve behind each potency; many fits are weak.

Usually AC50 stands for the concentration giving half of the maximal activity seen. A higher AC50 goes with activity only at high concentration.

On to `COC(=O)c1ccc(NC(=S)NC(=O)c2cc(-c3ccccc3)nc3ccccc23)cc1`, for which the cell number change came out at 34%. Also, the AC50 under setting [1] was 0.231 µM [rising, full curve, poor fit].
Turning to `O=C(c1ccc(Cl)cc1)N1CCC(O)(CSc2ccc(Cl)cc2Cl)CC1`, the cell number change is -22.8%. The AC50 under setting [2] is 29.1 µM [falling, single point].
As for `COC(=O)c1ccc2c(c1)C(=O)/C(=C/c1ccc(O)cc1)O2`, the cell number change came to 2.25%. Besides, the concentration at half-maximal activity (AC50) under setting [2] was 14.6 µM [rising, partial curve, poor fit].
For `COc1ccccc1-c1ocnc1C(=O)N1CCN(S(=O)(=O)c2ccc(NC(C)=O)cc2)CC1`, the cell number change stood at 14.2%. In addition, under setting [2], the AC50 was 2.91 µM [falling, partial curve].
On to `Cn1ccnc1SCC(=O)Nc1ccc2c(c1)OCO2`, for which the cell number change was -57.7%.
For the molecule `CCOC(=O)CSc1nnc(CNC(=O)c2ccc(S(=O)(=O)N3CCCC3)cc2)n1C`, the cell number change is -74.9%. The AC50 under setting [1] is 29.1 µM [falling, single point]. The AC50 under setting [2] was 29.1 µM [falling, partial curve].
Take `COc1ccccc1NC(=O)c1ccccc1-c1nc(-c2ccccc2OC)no1`: the AC50 under setting [2] is 0.58 µM [rising, single point].
Turning to `Cc1ccccc1C(=O)NC=C1C(=O)OC(C)(C)OC1=O`, the cell number change is -21%. In addition, the AC50 under setting [1] was 6.51 µM [rising, single point].
Take `Cc1ccc(SCC(=O)c2sc(-c3ccccc3)nc2C)cc1`: the cell number change is -3.9%. The AC50 under setting [2] is 0.58 µM [rising, single point].
On to `C/C=C(\C)CN1CCN(c2ccccc2)CC1`, for which the cell number change came out at 3.11%. Also, the half-maximal activity concentration (AC50) under setting [2] was 4.11 µM [falling, single point].
Turning to `O=C(Nc1ccc(Cl)c(Cl)c1)N(CCCN1CCOCC1)Cc1cccs1`, the cell number change was 20.5%. Further, under setting [2], the AC50 is 29.1 µM [rising, single point].
For `COc1ccc(C(=O)c2sc(Nc3ccccc3)nc2N)cc1OC`, the cell number change is -26.2%.
For `C=CCC1(CC=C)CCCN1C(=O)c1cc(COc2ccc(-n3cncn3)cc2)on1`, the cell number change is -32.8%. Moreover, the AC50 under setting [1] is 29.1 µM [falling, single point]. Besides, the AC50 under setting [2] is 29.1 µM [falling, single point].
As to `Cc1ccc(S(=O)(=O)Nc2ccc(C(=O)N3CCOCC3)cc2)cc1`, the cell number change was determined as 14.1%. Also, the AC50 under setting [2] was 29.1 µM [rising, single point].
Consider `CNS(=O)(=O)c1ccc(C)cc1`, for which the cell number change was -8.05%. Further, under setting [1], the concentration at half-maximal activity (AC50) is 6.51 µM [falling, single point].
For the molecule `O=C(NCc1cccs1)c1cc2c(s1)-c1ccccc1OC2`, the cell number change was found to be 0.142%.
Turning to `O=C1/C(=C/c2cccs2)CCC/C1=C\c1cccs1`, the cell number change was -19.5%. Under setting [2], the AC50 was 16.4 µM [falling, single point].
Turning to `C=CCN1C(=O)C(Cc2ccc(SC(F)F)cc2)SC1=Nc1ccc(C(=O)O)cc1` (stereo unspecified), the cell number change is -8.25%. Under setting [2], the concentration at half-maximal activity (AC50) is 2.91 µM [rising, single point].
On to `COC(=O)c1ccc(N2CCOCC2)c(NC(=O)c2ccc(Br)o2)c1`, for which the cell number change was -10.3%. For the same molecule, the AC50 under setting [2] was 1.64 µM [falling, partial curve, poor fit].
Turning to `c1cncc(CNc2ccc3c(c2)OCO3)c1`, the AC50 under setting [1] is 0.366 µM [rising, partial curve, poor fit] and the AC50 under setting [2] was 0.58 µM [rising, full curve].
On to `O=C(CC1CCCC1)Nc1cc(S(=O)(=O)N2CCOCC2)ccc1O`, for which the cell number change was -3.82%. Also, under setting [2], the half-maximal activity concentration (AC50) was 0.164 µM [falling, full curve, poor fit].
As for `Cc1nn(-c2ccc(N3CCCCC3)nn2)c(C)c1CCC(=O)Nc1ccccc1F`, the cell number change is -7.37%. Further, the AC50 under setting [2] is 23.1 µM [falling, single point].
`Brc1ccc(CSc2nnc3ccccn23)cc1`: the cell number change came to 11.7%.
The same measure, in the same setting: the result for `COc1ccccc1CN(CC(=O)NCc1ccco1)C(=O)CNS(=O)(=O)c1ccccc1` reads 18.2%.
Take `Cc1ccc(C)c(NC(=O)CSc2nc(N)c(NC(=O)c3cccs3)c(=O)[nH]2)c1`: the cell number change was 14.8%. Under setting [2], the half-maximal activity concentration (AC50) was 0.00651 µM [falling, full curve, poor fit].
For `NS(=O)(=O)c1cccc(NC(=O)COC(=O)c2cc(-c3ccc(Cl)cc3)nc3ccccc23)c1`, the cell number change was -34.1%. Under setting [1], the concentration at half-maximal activity (AC50) is 18.4 µM [falling, single point]. Moreover, under setting [2], the AC50 is 18.4 µM [falling, single point].
`O=c1[nH]c2ccc(Cl)cc2c(=O)n1Cc1ccco1`: the cell number change is -24.8%. Further, the concentration at half-maximal activity (AC50) under setting [2] is 29.1 µM [rising, single point].
Regarding `CCC1=NN2C(=N)/C(=C\c3ccc(SCc4ccco4)o3)C(=O)N=C2S1`, the cell number change stood at 61.6%. The AC50 under setting [1] is 20.6 µM [rising, single point]. Also, the AC50 under setting [2] was 0.164 µM [falling, full curve, poor fit].
With `O=C(NN1C(=O)NC2(CCCCC2)C1=O)c1ccc(-c2ccc(Cl)cc2)o1`, the cell number change was -10.8%. Moreover, under setting [2], the concentration at half-maximal activity (AC50) was 0.231 µM [falling, full curve, poor fit].
`CN(C(=O)c1ccc(Cl)c(S(=O)(=O)N2CCOCC2)c1)c1ccccc1C(=O)O`: the AC50 under setting [2] was 0.461 µM [falling, full curve].
`N#Cc1ccc(CSc2ncccn2)cc1`: the cell number change came out at 29%. The AC50 under setting [1] was 0.0651 µM [rising, full curve, poor fit]. Under setting [2], the AC50 is 16.4 µM [rising, partial curve].
As for `C=CCNc1nc(Nc2cc(Cl)ccc2OC)nc(OC)n1`, the cell number change is -6.08%. In addition, the concentration at half-maximal activity (AC50) under setting [2] is 18.4 µM [rising, single point].
Regarding `O=C(Nc1nc(-c2ccccn2)cs1)c1cccc(S(=O)(=O)N2CCOCC2)c1`, the cell number change is -37.1%. Also, the AC50 under setting [1] was 13 µM [falling, partial curve]. Further, under setting [2], the AC50 was 0.58 µM [falling, full curve, poor fit].
On to `CNC(=O)c1sccc1-n1cccc1`, for which the cell number change was -20.6%. The half-maximal activity concentration (AC50) under setting [1] is 1.3 µM [falling, full curve]. Moreover, under setting [2], the half-maximal activity concentration (AC50) was 0.731 µM [falling, full curve].
Regarding `O=C(CO)N/N=C/c1cccc(Cl)c1Cl`, the cell number change stood at 14.3%. Also, the AC50 under setting [2] was 6.51 µM [falling, single point].
Turning to `O=C(O)/C(=C/c1cccnc1)NC(=O)c1ccccc1`, the cell number change was -19.1%. The AC50 under setting [2] is 29.1 µM [falling, single point].
For `CNC(=O)c1ccc(Nc2nnc(-c3ccc(C)c(S(N)(=O)=O)c3)c3ccccc23)cc1`, the cell number change was 23.4%. Besides, under setting [1], the AC50 was 4.11 µM [rising, single point].
Turning to `COc1ccc(OC(C)C(=O)N(C)Cc2nc(-c3ccc(C)cc3)no2)cc1` (stereo unspecified), the cell number change was 26.7%. For the same molecule, the AC50 under setting [2] is 0.58 µM [rising, partial curve, poor fit].
Consider `O=C(c1cn(-c2ccccc2)nc1-c1ccccc1)N1CCN(c2ccccn2)CC1`, for which the cell number change worked out at 2.46%. In addition, the AC50 under setting [2] was 25.9 µM [rising, partial curve, poor fit].
Consider `COc1ccccc1-c1cc(C(F)(F)F)nc(S(=O)(=O)CCCC(=O)NC(C)C)n1`, for which the cell number change was -19.3%. For the same molecule, the AC50 under setting [1] was 0.00411 µM [falling, full curve, poor fit]. For the same molecule, the half-maximal activity concentration (AC50) under setting [2] was 29.1 µM [rising, single point].
As for `O=C(O)c1cccc(NS(=O)(=O)c2ccc(Cl)c(C(=O)O)c2)c1`, the cell number change was -1.55%. The AC50 under setting [2] is 0.651 µM [falling, full curve, poor fit].
For `CCOc1cc(C(=S)N2CCC(O)CC2)ccc1OS(=O)(=O)c1ccc(Br)cc1`, the cell number change was 36.9%. The AC50 under setting [1] was 29.1 µM [rising, single point].
As to `COC(=O)c1cc(C(=O)NCCC(C)C)cc([N+](=O)[O-])c1`, the cell number change was found to be 2.43%. Moreover, the AC50 under setting [2] is 0.0058 µM [rising, full curve, poor fit].
With `O=C(CSc1nnnn1-c1ccc2c(c1)OCO2)NCc1ccccc1`, under setting [2], the AC50 is 6.51 µM [rising, single point].
On to `COc1ccc(CNC(=O)c2ccc(NS(=O)(=O)c3c(C)noc3C)cc2)cc1`, for which the cell number change is -0.568%.
Still for that read-out and setting: the value for `Cc1nc(SCc2ccccc2F)c2cnn(-c3ccccc3)c2n1` was 14.6%.
Turning to `Cc1ccc(/C=C/C(=O)Nc2ccc(N(C)C)cc2)o1`, the cell number change came to 31.9%. For the same molecule, under setting [1], the AC50 is 1.03 µM [rising, partial curve]. Further, the AC50 under setting [2] was 0.517 µM [rising, single point].
For `O=C(CSCc1ccccc1)N1CCN(c2cccc(C(F)(F)F)c2)CC1`, the cell number change was -27.2%.
On to `CN(C)c1ccc(NC(=O)Cc2ccccc2)c2ccccc12`, for which the cell number change was -0.211%. For the same molecule, the AC50 under setting [2] was 7.31 µM [rising, partial curve, poor fit].
In the case of `O=S(=O)(c1ccc2c(c1)OCCCO2)N1CCNCC1`, the cell number change was -95.7%. Moreover, under setting [1], the AC50 is 9.2 µM [falling, partial curve]. Besides, the concentration at half-maximal activity (AC50) under setting [2] is 20.6 µM [falling, partial curve].
For `CCN1CCN(c2ccc(S(=O)(=O)N3CCCCC3)cc2NC(=O)COc2ccc(F)cc2Cl)CC1`, the cell number change worked out at 45.1%. Besides, the AC50 under setting [1] is 1.64 µM [rising, partial curve, poor fit].
For the molecule `CCCS(=O)(=O)c1c(S(=O)(=O)CCC)c2ccc(C(N)=O)cn2c1C(=O)c1ccc(OC)cc1`, the cell number change stood at 9.07%. Under setting [2], the AC50 is 6.51 µM [rising, full curve, poor fit].
With `CC(C)CC(=O)Nc1ccccc1Oc1ccccc1`, the AC50 under setting [2] was 1.46 µM [falling, partial curve].
With `COc1ccccc1N1CCN(S(=O)(=O)c2ccc3c(c2)NC(=O)C(C)C(=O)N3)CC1` (stereo unspecified), the cell number change amounted to 29.4%. In addition, the AC50 under setting [2] was 3.66 µM [rising, full curve].
`O=C(O)COc1cnc2ccccc2n1`: the cell number change was determined as 122%. Under setting [1], the concentration at half-maximal activity (AC50) is 6.51 µM [falling, single point].
Turning to `CCOc1ccc(/C(O)=C2\C(=O)C(=O)N(c3cc(C)on3)C2c2ccccc2OC)cc1` (stereo unspecified), the concentration at half-maximal activity (AC50) is 2.06 µM [rising, partial curve] under setting [1] and 2.06 µM [rising, partial curve] under setting [2].
Take `CCCCN(C)CCNC(=O)CCNC(=O)Cn1ccc2ccccc2c1=O`: the cell number change was -28.5%. Also, the AC50 under setting [1] was 0.326 µM [falling, full curve, poor fit]. Also, the AC50 under setting [2] was 0.146 µM [falling, full curve].
`Cc1cccn2cc(CNC(=O)c3ccco3)nc12`: the cell number change came to 22.5%.
On to `COCCNC(=O)CN(c1cc(Cl)ccc1OC)S(C)(=O)=O`, for which the cell number change is -18.1%. In addition, the AC50 under setting [2] was 0.184 µM [falling, full curve, poor fit].
